Data published in paper PMC12079445.
Results are given in words; binding and its absence hold for the method and conditions named. In cells and extracts the contact can be indirect. Some entries that bind do so weakly or less than the wild type.

Sequences of proteins named here, by UniProt entry; tags and fusion partners are left off.
UniProt O35343: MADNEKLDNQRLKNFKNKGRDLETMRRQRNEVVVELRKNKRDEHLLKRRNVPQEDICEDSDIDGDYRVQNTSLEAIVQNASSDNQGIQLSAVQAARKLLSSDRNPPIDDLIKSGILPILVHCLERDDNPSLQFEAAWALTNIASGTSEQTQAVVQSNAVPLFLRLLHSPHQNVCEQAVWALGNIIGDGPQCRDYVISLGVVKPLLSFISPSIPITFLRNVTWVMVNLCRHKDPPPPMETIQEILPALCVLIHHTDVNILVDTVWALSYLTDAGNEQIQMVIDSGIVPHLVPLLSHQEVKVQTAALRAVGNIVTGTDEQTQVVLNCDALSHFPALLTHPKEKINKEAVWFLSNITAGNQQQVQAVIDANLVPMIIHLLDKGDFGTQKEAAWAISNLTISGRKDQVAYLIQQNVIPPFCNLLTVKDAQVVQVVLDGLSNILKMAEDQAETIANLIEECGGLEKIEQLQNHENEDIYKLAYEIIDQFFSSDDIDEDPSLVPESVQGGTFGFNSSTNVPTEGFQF
UniProt Q04207: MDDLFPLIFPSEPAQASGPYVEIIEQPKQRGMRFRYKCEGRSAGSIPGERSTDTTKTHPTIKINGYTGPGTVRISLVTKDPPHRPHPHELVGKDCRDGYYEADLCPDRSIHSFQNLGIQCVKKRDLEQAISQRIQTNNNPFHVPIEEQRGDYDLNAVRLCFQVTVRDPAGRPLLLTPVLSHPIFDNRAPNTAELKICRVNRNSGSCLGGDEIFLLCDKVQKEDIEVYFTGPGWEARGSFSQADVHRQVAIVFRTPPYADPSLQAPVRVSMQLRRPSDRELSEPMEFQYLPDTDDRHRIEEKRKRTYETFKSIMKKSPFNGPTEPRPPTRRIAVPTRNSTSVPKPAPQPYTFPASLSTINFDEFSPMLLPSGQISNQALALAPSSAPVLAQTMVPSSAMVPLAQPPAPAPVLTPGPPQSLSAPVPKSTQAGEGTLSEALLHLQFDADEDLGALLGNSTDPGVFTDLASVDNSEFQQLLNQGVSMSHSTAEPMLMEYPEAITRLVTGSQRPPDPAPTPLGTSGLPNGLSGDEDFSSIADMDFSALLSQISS
UniProt Q08642: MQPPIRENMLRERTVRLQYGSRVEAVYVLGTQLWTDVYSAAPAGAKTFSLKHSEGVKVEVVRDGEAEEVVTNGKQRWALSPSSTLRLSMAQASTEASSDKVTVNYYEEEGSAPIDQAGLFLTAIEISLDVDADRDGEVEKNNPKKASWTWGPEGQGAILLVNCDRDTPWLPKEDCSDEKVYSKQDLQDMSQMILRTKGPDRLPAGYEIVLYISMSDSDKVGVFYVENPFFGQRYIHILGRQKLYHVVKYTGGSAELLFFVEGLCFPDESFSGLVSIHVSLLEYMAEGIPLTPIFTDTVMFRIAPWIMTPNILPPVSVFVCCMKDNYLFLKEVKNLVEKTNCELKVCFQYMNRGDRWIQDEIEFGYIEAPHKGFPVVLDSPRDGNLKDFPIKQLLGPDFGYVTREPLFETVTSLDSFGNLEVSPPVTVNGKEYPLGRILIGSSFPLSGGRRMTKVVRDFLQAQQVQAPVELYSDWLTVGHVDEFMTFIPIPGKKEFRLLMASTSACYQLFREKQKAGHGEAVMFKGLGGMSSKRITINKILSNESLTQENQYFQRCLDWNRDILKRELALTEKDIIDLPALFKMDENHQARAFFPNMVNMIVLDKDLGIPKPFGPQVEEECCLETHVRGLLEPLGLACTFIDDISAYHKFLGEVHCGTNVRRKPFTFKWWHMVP

Assays:
[1] = molecular target: importin α3 (mouse (endogenous in RAW 264.7)) (UniProt O35343); assay: co-IP; lysates of R171A mutant and WT RAW 264.7 cells stimulated with PA-derived LPS (250 ng/mL, 1 h); immunoprecipitation with anti-importin α3 or control IgG; blot with anti-NF-κB p65
[2] = molecular target: nuclear factor-κB (NF-κB) p65 (mouse (endogenous in BMDMs)) (UniProt Q04207); assay: co-IP; lysates of BMDMs from WT and Pad2-/- mice stimulated with PA-derived LPS (250 ng/mL, 1 h); immunoprecipitation with anti-p65 antibody or control IgG; blot with anti-PAD2

binding [1]	binding [2]	Substance
binds	–	nuclear factor-κB (NF-κB) p65 in WT RAW 264.7 cells (from UniProt Q04207 1-549)
–	binds	peptidyl arginine deiminase 2 (PAD2) (from UniProt Q08642 1-673) (enzyme)
